Test results: US20260218132A1, “METHODS AND MATERIALS FOR GENERATING STEM CELL-DERIVED ENDOCRINE CELL TYPES” (Mayo Foundation for Medical Education and Research, priority 2023, published 2026)
At least one structure is not confirmed: it was looked up by name or label, or the drawing left a doubt.

Key:
PP cells = PP cells treated with FGF receptor inhibitors along with RA, somatostatin expressing cells; type: cell-based, human; conditions: FIG. 7A-B
Protocol: (§1) The cell clusters collected during the course of differentiation at different stages were dissociated into single cell suspension by treating with TrypLE Express at 37° C. for 10 minutes after washing twice with phosphate buffered saline (PBS). The enzyme activity was quenched by adding equal volume of S3 media to prevent further degradation, and dispersed single cells were washed with PBS, fixed in 4% paraformaldehyde (PFA) for 20 minutes and subsequently stored at 4° C. until further use. On the day of staining, the cells were passed through 40 μm filter and washed twice with PBS before permeabilizing in block solution (PBS+0.1% Triton X-100+5% donkey serum; PBST). […] The stained cells were acquired in Attune flow cytometer and were analyzed using FlowJo v10 software. […]
To further explore the specificity of inhibition of FGF receptors, PP cells were treated with five additional FGF receptor inhibitors (AZD4547, erdafitinib, roblitinib, pemigatinib, or BGJ398) along with RA (FIG. 7). […] To find an effective concentration of these compounds, differentiated PP cells were transferred to six-well plates and treated with either control having only RA or each FGF receptor inhibitors along with RA for 5 days and quantified the percentage of somatostatin expressing cells.

PDX1^+/NKX6.1^− PP cells = test: Differentiation of PP cells to delta progenitor cells (stage 4), hormone expression by flow cytometry; type: cell-based, human; conditions: stage 3 cells treated independently or in combination for 5 days
Protocol: After 72 hours of culture in mTeSR, the clusters of HUES8 cells were allowed to settle at the bottom of the spinner flask, and spent media was replaced with stage specific differentiation media containing specific growth factors and small molecules.
(§2) The differentiation was carried out in six stages. The generation of PP1 cells from HUES8 cells was carried out using prior protocols with modifications (see, e.g., Pagliuca et al., Cell, 159:428-439 (2014); and Peterson et al., Nat. Commun., 11:Article No. 2241 (14 pages) (2020)); and the delta cell differentiation was further carried out using PP1 cells. The media changes for differentiation were as follows:
as §1, with “use.” for “use. On the day of staining, the cells were passed through 40 μm filter and washed twice with PBS before permeabilizing in block solution (PBS+0.1% Triton X-100+5% donkey serum; PBST).”

pre-delta cells [1] = test: Differentiation of pre-delta cells to SCδ cells (stage 6), flow cytometry and immunohistochemistry; type: cell-based, human
Protocol: as §2, §1

pre-delta cells [2] = test: High-content small molecule screen and dose response on pre-delta cells (step 6)

Compound	induction of somatostatin, immunohistochemical staining of delta progenitor clusters (PP cells)	somatostatin expression in PP cells (PDX1^+/NKX6.1^− PP cells)	expression of glucagon and alpha cell marker Arx (pre-delta cells [1]; immunohistochemical staining, FIG. 11A-B)	total polyhormonal cells (pre-delta cells [1]; stage 6, with vs without forskolin)	dose response, monohormonal SCδ cells (pre-delta cells [2]; FIG. 2F, FIG. 24B)	screen outcome, step 6 (increase of monohormonal SC-δ cells) (pre-delta cells [2]; library screened at 20 μM, 2 μM and 0.2 μM)
CC1=C(/C=C/C(C)=C/C=C/C(C)=C/C(=O)O)C(C)(C)CCC1 [RA, retinoic acid]	not sufficient to induce the expression of somatostatin	induced a small population of somatostatin expression	–	–	–	–
C=C[C@@]1(C)CC(=O)[C@]2(O)[C@@]3(C)[C@@H](O)CCC(C)(C)[C@@H]3[C@H](O)[C@H](OC(C)=O)[C@@]2(C)O1 [forskolin, [(3R,4aR,5S,6S,6aS,10S,10aR,10bS)-3-ethenyl-6,10,10b-trihydroxy-3,4a,7,7,10a-pentamethyl-1-oxo-5,6,6a,8,9,10-hexahydro-2H-benzo[f]chromen-5-yl]acetate]	–	–	reduced the expression of glucagon but also alpha cell marker Arx	no significant reduction	dose dependent increase in monohormonal SCδ cells	primary hits
